# Assay results

The results are deposited in PubChem (AID1159506; NCATS, 2015).

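Luminescence from an EWS-FLI1 target-promoter (NR0B1) reporter, set against a CMV-promoter reporter, two days after silencing single genes in TC32 Ewing sarcoma cells.
Each siRNA was applied at 20 nM.
A z-score of the log NR0B1-over-CMV signal, less the median of siRNAs with the same seed; more negative means a stronger specific loss of the NR0B1 reporter.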

This is part of the screen; most of the strongest results are not listed here.
Sequences are the guide (antisense) strand, without overhang.

| Sequence | gene | seed-corrected z-score |
|---|---|---|
| `AACACUUUCACAACGAUUU` | RPL34 | -0.3934 |
| `AUAGGUCUGAUGUAACUCC` | MOGAT1 | -0.4234 |
| `UUCGUCUACAGAGAUCCGC` | MAPK9 | 0.1244 |
| `GUGCUUGUCGUUCAGGACG` | C16orf74 | 1.264 |
| `UUGUUGUCAAUGAUCAAUG` | KIAA0895 | -0.164 |
| `UCAGAUACCUCCCACAAAC` | PANX1 | 0.828 |
| `UCGAGUUCUUUUUAGGUUG` | FNBP1 | -0.02137 |
| `UUCCCGUUGAAUAAAGGGC` | LIPH | 1.107 |
| `UUUCAGGCAUGUCUGAAGC` | HM13 | 0.8584 |
| `ACAGUUUGCAGAUUAGUGC` | SPTB | 0.5897 |
| `AAACCAUCAGGCAUGUUAC` | NOTCH2 | -0.8285 |
| `AAAGAGAUGACCUCGUGCC` | ZNF557 | 0.5644 |
| `UAGUGUCCUCGAACUACCU` | RPL26L1 | 0.9699 |
| `UAAGUGUCGGUUGAGUCGC` | RNF20 | 0.3558 |
| `UUUUAAUGGUUAAAGCUGC` | LTB4R | 0.2206 |
| `UUAUCGUUGUUUGAGUUGG` | RAVER2 | -0.6785 |
| `UGUUAUGUAGAUAAUGAGG` | CMTM8 | -0.3875 |
| `UUUGCUGACAAAAUAGCCG` | ABR | -0.518 |
| `UUUCUUAGGUGUUUCUUCU` | ANKRD30BP3 | -0.423 |
| `UAGUAUUUAGGUUCCACCU` | NAA11 | -0.3647 |
| `AAGCUUGAUAAUUAGUGCG` | RFC1 | -0.9206 |
| `UAAGAUGCAUCUACUGCUG` | TEX12 | 0.03699 |
| `UUUCGUACAGCUGCCUGAG` | KRT8P3 | 1.215 |
| `UAUUCAGCAAGUAAAACUG` | TAS2R39 | -0.5292 |
| `UCUCGUUGUACAUAAUCUC` | NPRL3 | -0.04762 |
| `UUGGGUAACCUGGAGUUGG` | NCOR1 | -0.452 |
| `UGAGAUUGCACCAUGGAAC` | HSH2D | 0.4359 |
| `AUAGCUGAUGUUCAAGUCC` | ESYT1 | -0.1444 |
| `AUUUUGGUGAAGGCAGUUG` | UGT1A1 | 0.7544 |
| `AAGGAUACCCGAGAUGUUG` | SLC34A1 | 1.134 |
| `UCUGCAACCUUGUUCAUAG` | NDUFV2 | -0.137 |
| `UUCCAUGCUAAGGAUUUGC` | ANKRD35 | 1.395 |
| `AGCAAAGUAAUCUAGUUCC` | PGK2 | -1.201 |
| `UUUGUUCCUCUAAUCUUCG` | MLLT10 | 1.732 |
| `UUAUGUAAUACGAGGCCUG` | TBC1D27 | 0.7185 |
| `UCGUGUUAUAUUAUCGAGG` | FCGRT | 0.9479 |
| `UUUAAUAUAACAGCUGGUG` | LHX8 | 0.5472 |
| `UUACGUUUUAGCAUUAGUC` | C8orf4 | 0.03117 |
| `UAUUUUCUUAGUUUGUACU` | RPL23AP74 | -0.4426 |
| `UCCUUGCUCACGGAUGUUC` | KCNJ8 | -0.8158 |
| `AUCGGUAAGAUUAAAGUCC` | ITGA1 | 0.7097 |
| `UUUAGUAAAACCAGUGAAG` | ABCB6 | 0.1839 |
| `UAAGCUUCUACGGCUUUUG` | SGCD | -1.419 |
| `AUUGAUUUCAACUCGAUUC` | SPOP | 0.3326 |